Results: PubChem BioAssay AID540276 (National Center for Advancing Translational Sciences (NCATS), 2011)
The campaign covered roughly 300,000 compounds. About 5,400 (1.8%) were called active. The shares of active, inactive and inconclusive entries below differ from those in the screen. The call rests on the fitted dose curve; tested in HEK293 cells. Potencies beside an inconclusive call are fits to weak or partial responses and may not hold up.

Assay: qHTS for inhibitors of binding or entry into cells for Marburg Virus
Conditions: Marburg virus pseudotyped entry inhibition, cell reporter; activity change, negative = inhibition: at 37.8 µM (top of the series) unless noted
On the % scale 0 is the no-effect control and ±100 the full control effect; potency means the concentration at half of the fitted maximal effect.

Q: For `CC1CCc2c(C(=O)NCCN3CCOCC3)csc2C1` (stereo not given), which “activity change, negative = inhibition” value is on record?
A: inactive: 6.46%

Q: For `CCn1c(C)cs/c1=N\C(=S)Nc1ccccc1C`, which Potency is on record?
A: inconclusive: 10 µM [activator, partial curve, poor fit]

Q: With `CCOC(=O)C1CCN(CC(C)(C)NS(=O)(=O)c2ccc(C)cc2)CC1` as the molecule, how does the activity change, negative = inhibition read?
A: inconclusive: 11.4% [activator] [at 46.1 µM]

Q: With `Cc1ccc(NC(=O)c2ccc3c(c2)CCN3S(C)(=O)=O)cc1C` as the molecule, how does the Potency read?
A: inconclusive: 10 µM [inhibitor, partial curve, poor fit]

Q: Which Potency does the source give for `COc1ccc(NC(=O)c2ccco2)c([N+](=O)[O-])c1` here?
A: inconclusive: 4.47 µM [activator, single point]

Q: With `C/C(=N\Nc1nncc2ccccc12)c1cccc(OC(F)F)c1` as the molecule, how does the Potency read?
A: inconclusive: 10 µM [inhibitor, partial curve, poor fit]

Q: With `O=C(NC(=S)Nc1ccc(CN2CCOCC2)cc1)c1cccc([N+](=O)[O-])c1` as the molecule, how does the “activity change, negative = inhibition” value read?
A: inactive: -8.66%

Q: With `O=C(Cc1ccccc1)OCC(=O)N1CCN(S(=O)(=O)c2ccc(Cl)cc2)CC1` as the molecule, how does the “activity change, negative = inhibition” value read?
A: inactive: 16.9% [at 46.1 µM]

Q: Which Potency does the source give for `O=C(N/N=C/c1ccccc1C(=O)O)C(=O)N1CCCCC1` here?
A: inconclusive: 2.24 µM [activator, partial curve, poor fit]

Q: Which Potency does the source give for `CCOC(=O)c1ccc(NC(=O)C2C3CCCCC32)cc1` (stereo not given) here?
A: inconclusive: 22.4 µM [activator, single point]

Q: Which Potency does the source give for `Cc1cccn2c(CN3CCNC(=O)CC3)c(C(=O)N(C)CCc3ccccc3)nc12` here?
A: inconclusive: 3.16 µM [activator, single point]

Q: With `Cn1c2ccccc2c2c(C(=O)N3CCC4(CC3)OCCO4)cn(C3CCCC3)c(=O)c21` as the molecule, how does the Potency read?
A: inconclusive: 35.5 µM [inhibitor, single point]

Q: For `CC1(C(=O)Nc2nc3ccc(S(C)(=O)=O)cc3s2)CC1(Cl)Cl` (stereo not given), which Potency is on record?
A: inconclusive: 31.6 µM [activator, single point]

Q: Which Potency does the source give for `Cc1ccc2cc3cc(C(=O)N4CCC5(CC4)OCCO5)oc3nc2c1` here?
A: inconclusive: 1.26 µM [activator, full curve]

Q: Which “activity change, negative = inhibition” value does the source give for `CSc1ncccc1C(=O)N(C)CC(=O)Nc1ccc(Cl)cc1` here?
A: inactive: -17.8% [at 46.1 µM]

Q: For `CN1C(=O)NC(NC(=O)c2cccs2)(C(F)(F)F)C1=O` (stereo not given), which “activity change, negative = inhibition” value is on record?
A: inactive: -2.86%

Q: For `COC(=O)C1CCN(Cc2cn(-c3ccccc3)nc2-c2ccc3c(c2)OCO3)CC1`, which Potency is on record?
A: inconclusive: 14.1 µM [inhibitor, partial curve, poor fit]

Q: With `O=C(Nc1nc(-c2cc3ccccc3oc2=O)cs1)c1ccc(Br)o1` as the molecule, how does the Potency read?
A: inconclusive: 11.2 µM [activator, single point]

Q: With `Cc1ccc(CC(=O)NCC(O)c2ccccc2)cc1` (stereo not given) as the molecule, how does the “activity change, negative = inhibition” value read?
A: inactive: 5.17%

Q: With `Cc1ccc(-c2nnn(CC(=O)N(Cc3ccco3)C(C(=O)NC(C)(C)C)c3cccs3)n2)o1` (stereo not given) as the molecule, how does the Potency read?
A: inconclusive: 25.9 µM [inhibitor, partial curve, poor fit]

Q: For `N#CC(C(=O)O)=C1CCCC1`, which “activity change, negative = inhibition” value is on record?
A: inactive: 16.4%

Q: Which Potency does the source give for `Cc1cc(NC(=O)C(Cl)c2ccccc2)no1` (stereo not given) here?
A: inconclusive: 35.5 µM [inhibitor, single point]

Q: Which “activity change, negative = inhibition” value does the source give for `COc1ccccc1Nc1nnc(SCC(=O)N2CCCC2=O)s1` here?
A: inactive: 9.11%

Q: Which Potency does the source give for `COc1ccc(/C=C\c2nc(=O)c3ccccc3o2)cc1` here?
A: inconclusive: 20 µM [inhibitor, single point]

Q: Which “activity change, negative = inhibition” value does the source give for `CCCN(Cc1cc2cc(C)ccc2[nH]c1=O)C(=O)c1cccc(Cl)c1` here?
A: inactive: 10.4% [at 46.1 µM]

Q: For `O=C(O)c1ccc(COc2ccc3ccccc3c2/C=C2/NC(=O)N(c3ccccc3)C2=O)cc1`, which “activity change, negative = inhibition” value is on record?
A: inactive: -6.26%

Q: For `CCCCn1c(N)c(N(CC(C)C)C(=O)CSCc2ccc(Cl)c(Cl)c2)c(=O)[nH]c1=O`, which Potency is on record?
A: inconclusive: 7.08 µM [inhibitor, partial curve]

Q: With `Cc1cc(C)n(/N=C/c2cccc([N+](=O)[O-])c2)c(=O)c1` as the molecule, how does the Potency read?
A: inconclusive: 11.2 µM [activator, single point]

Q: For `O=C(CN(C(=O)CNC(=O)c1ccco1)c1ccc2c(c1)OCO2)NC1CCCCC1`, which “activity change, negative = inhibition” value is on record?
A: inactive: 3.74%

Q: For `COc1ccc(NC(=O)CNS(=O)(=O)c2ccc(Cl)cc2)cc1OC`, which Potency is on record?
A: inconclusive: 22.4 µM [activator, single point]

Q: With `CCOC(=O)c1cnc(-n2nc(C)cc2C)nc1NCc1ccccc1` as the molecule, how does the Potency read?
A: inconclusive: 28.2 µM [inhibitor, single point]

Q: Which Potency does the source give for `C=CCC1C=CCC(CC=C)N1C(=O)c1ccccc1[N+](=O)[O-]` (stereo not given) here?
A: inconclusive: 1.26 µM [inhibitor, single point]

Q: With `COc1cccc(/C=C/C(=O)OCC(=O)Nc2cccc(S(=O)(=O)N(C)C)c2)c1` as the molecule, how does the “activity change, negative = inhibition” value read?
A: inactive: 0.929% [at 46.1 µM]

Q: With `CCN(CC)CCN(CC(=O)N(C1CCCCC1)C1CCCCC1)C(=O)c1cccnc1` as the molecule, how does the Potency read?
A: inconclusive: 35.5 µM [inhibitor, single point]

Q: With `COc1ccc(C(=O)Nc2cccc3c2CCCC3)c(OC)c1` as the molecule, how does the “activity change, negative = inhibition” value read?
A: inactive: 5.07% [at 46.1 µM]

Q: For `CC1CC(C)CN(C(=S)Nc2ccc3nc4n(c(=O)c3c2)CCCCC4)C1` (stereo not given), which Potency is on record?
A: inconclusive: 1.26 µM [inhibitor, single point]

Q: Which Potency does the source give for `Cc1ccc(C)c(NC(=O)CN2C(=O)CC(C)S(=O)(=O)c3ccccc32)c1` (stereo not given) here?
A: inconclusive: 35.5 µM [activator, single point]

Q: Which “activity change, negative = inhibition” value does the source give for `COc1cccc(CNc2nc(-c3cccnc3)nc3ccccc23)c1` here?
A: inactive: -28%

Q: With `Cc1ccc(CNC(=O)CN(Cc2cccs2)C(=O)C2(C)CC(=O)N=C3C=CC=CN32)cc1` (stereo not given) as the molecule, how does the “activity change, negative = inhibition” value read?
A: inactive: 4.07%

Q: For `CC1CCCC(NC(=O)COC(=O)Cc2ccsc2)C1C` (stereo not given), which “activity change, negative = inhibition” value is on record?
A: inactive: -5.19%

Q: With `CCCCS(=O)(=O)N1CN(S(=O)(=O)CCCC)C2NC(=O)NC21` (stereo not given) as the molecule, how does the “activity change, negative = inhibition” value read?
A: inactive: 15.5%

Q: Which Potency does the source give for `C=CCN(c1ccc(OC)cc1)S(=O)(=O)c1ccc(Cl)c(C(=O)OCC(=O)c2c(N)n(C)c(=O)n(C)c2=O)c1` here?
A: inconclusive: 6.31 µM [inhibitor, partial curve, poor fit]

Q: With `CCOC(=O)/C(C#N)=C\c1ccc(N2CCN(C/C=C/c3ccccc3)CC2)cc1` as the molecule, how does the Potency read?
A: inconclusive: 31.6 µM [inhibitor, single point]

Q: For `Cc1[nH]n(-c2nc(-c3ccc(Cl)cc3)cs2)c(=O)c1N=Nc1ccc(O)cc1`, which Potency is on record?
A: inconclusive: 10 µM [inhibitor, partial curve, poor fit]

Q: With `CCOc1ccccc1N1CCN(C(=O)c2ccncc2)CC1` as the molecule, how does the “activity change, negative = inhibition” value read?
A: inactive: 19.2%
